Where a chain is given by its changes, count along the chain named. No constants are given. Whether binding was seen depends on the method and setting. Binding seen in cells or lysates may run through a third protein. Some entries that bind do so weakly or less than the wild type.

Chains of the proteins cited; added tags and fusions are not shown.
UniProt P62259: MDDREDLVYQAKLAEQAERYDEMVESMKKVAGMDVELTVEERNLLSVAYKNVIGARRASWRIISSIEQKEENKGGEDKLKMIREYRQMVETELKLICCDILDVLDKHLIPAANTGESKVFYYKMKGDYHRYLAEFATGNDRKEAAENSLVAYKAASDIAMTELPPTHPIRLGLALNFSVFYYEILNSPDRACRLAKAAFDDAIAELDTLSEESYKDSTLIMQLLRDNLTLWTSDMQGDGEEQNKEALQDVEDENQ
UniProt P62261: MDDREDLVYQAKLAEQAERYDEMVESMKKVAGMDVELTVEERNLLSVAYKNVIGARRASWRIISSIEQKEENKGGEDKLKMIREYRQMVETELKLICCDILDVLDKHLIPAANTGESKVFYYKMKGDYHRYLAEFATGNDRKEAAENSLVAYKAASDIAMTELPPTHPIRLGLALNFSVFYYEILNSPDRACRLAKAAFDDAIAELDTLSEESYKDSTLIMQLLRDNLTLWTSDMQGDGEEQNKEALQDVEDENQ

Test [1] addresses T1, bEF^−GCAP2, bovine GCAP2(E80Q/E116Q/D158N), transgene product in mouse rods (bovine) (UniProt P51177).
T1 sequence (chain, phosphorylated to high levels in vivo (Ser201)): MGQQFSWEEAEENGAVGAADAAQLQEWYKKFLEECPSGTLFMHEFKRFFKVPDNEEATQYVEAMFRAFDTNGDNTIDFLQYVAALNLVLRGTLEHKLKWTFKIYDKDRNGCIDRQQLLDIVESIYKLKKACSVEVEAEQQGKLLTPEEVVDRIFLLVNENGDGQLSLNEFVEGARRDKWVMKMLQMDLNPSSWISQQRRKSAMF
Put plainly: co-IP; ^32Pi-labelled retinas kept in the dark or exposed to light for 5 min, solubilized in 1% Triton X100 with 4 mM EGTA, 2 mM EDTA, 2 mM NaF; GCAP2 precipitated with anti-GCAP2 mAb2235 on magnetic beads; blot for 14-3-3.

Test [2] deals with T2, recombinant bEF^−GCAP2, mock-treated (unphosphorylated) (bovine) (UniProt P51177).
T2 sequence: T1 sequence (chain, phosphorylated to high levels in vivo (Ser201))
The test is described as follows: pull-down; phosphorylated or mock-treated recombinant GCAP2 cross-linked to magnetic beads; solubilized bovine retina (1/8 retina) in 10 mM HEPES pH 7.4, 135 mM NaCl, 1% Triton X-100, 4 mM EGTA, 2 mM EDTA; 1 h at room temperature; blot for 14-3-3pan and 14-3-3ε; only the target purified.

The target of test [3] is T3, recombinant phosphorylated bEF^−GCAP2 (bovine) (UniProt P51177).
T3 sequence (chain, phosphorylated in vitro by PKG; Ser201 named as the site): T1 sequence (chain, phosphorylated to high levels in vivo (Ser201))
The description is as above.

Test [4] has as its target T4, recombinant phosphorylated bGCAP2 (bovine) (UniProt P51177).
T4 sequence (chain, phosphorylated in vitro by PKG; Ser201 named as the site): T1 sequence (chain, phosphorylated to high levels in vivo (Ser201)) with Q80E, Q116E, N158D
The test is described as above.

“14-3-3 protein ε (mouse) (from UniProt P62259 1-255)”: the binding entry in test [1] is “binds”.
For “14-3-3ε (bovine retina) (from UniProt P62261 1-255)”, the binding entry in test [2], in test [3] and in test [4] was “binds” in each case.

The values above are taken from publication PMC4109901, “Functional EF-Hands in Neuronal Calcium Sensor GCAP2 Determine Its Phosphorylation State and Subcellular Distribution In Vivo, and Are Essential for Photoreceptor Cell Integrity” (PLoS Genetics, 2014).
